Data taken from PMC12824188.
Results are given in words; binding and its absence hold for the method and conditions named. Binding seen in cells or lysates may run through a third protein. Some entries that bind do so weakly or less than the wild type.

Protein sequences, listed by entry. Tags and fused reporters are not part of them. Lines headed by an entry give the natural chain unless they say otherwise; changes in a name come on top. Chains listed by the source or under a name are the forms on record and can include a tag or linker.
exogenous PKCβII (P05771-2, form named): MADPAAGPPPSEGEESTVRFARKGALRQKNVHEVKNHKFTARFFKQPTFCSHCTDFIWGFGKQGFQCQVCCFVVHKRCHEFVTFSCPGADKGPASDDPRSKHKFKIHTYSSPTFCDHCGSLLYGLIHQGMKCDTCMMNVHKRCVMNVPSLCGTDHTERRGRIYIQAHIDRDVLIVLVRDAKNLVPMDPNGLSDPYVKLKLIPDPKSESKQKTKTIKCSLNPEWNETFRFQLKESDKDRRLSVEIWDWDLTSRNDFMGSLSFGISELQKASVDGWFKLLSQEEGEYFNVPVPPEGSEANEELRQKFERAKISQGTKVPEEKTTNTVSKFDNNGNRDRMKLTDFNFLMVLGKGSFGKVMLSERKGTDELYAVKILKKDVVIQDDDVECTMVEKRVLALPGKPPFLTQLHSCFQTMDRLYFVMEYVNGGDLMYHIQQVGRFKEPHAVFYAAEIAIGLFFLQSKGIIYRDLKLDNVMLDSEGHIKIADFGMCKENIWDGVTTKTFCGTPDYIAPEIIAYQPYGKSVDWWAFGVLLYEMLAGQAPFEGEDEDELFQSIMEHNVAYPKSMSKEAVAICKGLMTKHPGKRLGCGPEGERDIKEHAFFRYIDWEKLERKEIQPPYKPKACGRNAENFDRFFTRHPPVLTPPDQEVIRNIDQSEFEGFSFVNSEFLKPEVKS
UniProt Q2M2I8: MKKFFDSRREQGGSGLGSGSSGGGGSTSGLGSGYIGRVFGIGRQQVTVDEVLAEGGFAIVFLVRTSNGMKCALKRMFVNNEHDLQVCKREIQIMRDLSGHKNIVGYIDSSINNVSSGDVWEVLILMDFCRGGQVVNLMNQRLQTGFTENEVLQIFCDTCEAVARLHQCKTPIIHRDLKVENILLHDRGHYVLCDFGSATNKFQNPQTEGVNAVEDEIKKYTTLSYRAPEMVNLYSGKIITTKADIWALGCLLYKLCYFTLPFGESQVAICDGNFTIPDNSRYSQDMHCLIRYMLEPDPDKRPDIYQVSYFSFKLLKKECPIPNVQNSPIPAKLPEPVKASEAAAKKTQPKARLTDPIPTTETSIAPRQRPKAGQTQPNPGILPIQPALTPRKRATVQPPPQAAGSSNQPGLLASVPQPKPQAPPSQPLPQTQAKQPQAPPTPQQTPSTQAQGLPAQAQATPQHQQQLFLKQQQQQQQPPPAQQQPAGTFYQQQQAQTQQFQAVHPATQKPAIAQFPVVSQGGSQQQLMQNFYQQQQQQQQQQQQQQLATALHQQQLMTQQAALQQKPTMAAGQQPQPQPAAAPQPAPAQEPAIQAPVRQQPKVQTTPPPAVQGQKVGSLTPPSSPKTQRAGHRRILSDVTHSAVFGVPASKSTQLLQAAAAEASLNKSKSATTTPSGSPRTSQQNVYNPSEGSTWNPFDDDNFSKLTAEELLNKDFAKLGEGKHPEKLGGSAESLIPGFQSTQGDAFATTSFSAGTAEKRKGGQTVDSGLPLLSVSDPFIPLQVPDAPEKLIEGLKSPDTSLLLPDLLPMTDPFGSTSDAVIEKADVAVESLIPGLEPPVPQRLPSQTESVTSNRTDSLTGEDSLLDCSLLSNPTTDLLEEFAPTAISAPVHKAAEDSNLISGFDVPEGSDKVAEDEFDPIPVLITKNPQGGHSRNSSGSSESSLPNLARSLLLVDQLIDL

Experiments:
[1] = biological target: endogenous PKCβII (human (endogenous in MDA-MB-231 and HT1080)) (UniProt P05771); experiment: co-IP; Cells (MDA-MB-231, HT1080) treated with erastin at rising concentrations for 12 h, some with the PKC inhibitors Go6983 or enzastaurin; Pierce IP lysis buffer with phosphatase or protease inhibitors; 1 mg lysate protein with 2 μg primary antibody at 4 °C overnight; protein A/G agarose beads 2 h at 4 °C; four washes; western blot. Endogenous PKCβII or endogenous AAK1 precipitated.
[2] = biological target: endogenous AP2-associated protein kinase 1 (AAK1) (human (endogenous in MDA-MB-231 and HT1080)) (UniProt Q2M2I8); experiment: as above

Row | Substance | binding [1] | binding [2]
1 | endogenous AP2-associated protein kinase 1 (AAK1) (from UniProt Q2M2I8 1-961) (enzyme) | binds | –
2 | endogenous PKCβII (from UniProt P05771-2 1-673) (enzyme) | – | binds
3 | exogenous AAK1 (from UniProt Q2M2I8 1-961) (enzyme) | binds | –
4 | exogenous PKCβII (from UniProt P05771-2 1-673) (enzyme) | – | binds
